# Test results: patent publication US10233200B2, “Organomodified monosilyl compound, its preparation and applications thereof” (Momentive Performance Materials Inc., priority 2017, dated 2019)
# System: canola leaf
# Assay: Total Available Dose (TAD) of 2,4-D DMA into canola leaf = Uptake (%) x Droplet Adhesion (%)
# Conditions: no adjuvant compound (0 % wt/vol), 2,4-D alone
smiles,measurement,setting,value
"CNC.O=C(O)COc1ccc(Cl)cc1Cl [2,4-D alone, 2,4-dichlorophenoxyacetic acid, dimethylamine salt]",TAD (2 HAT),2 HAT,0.8
same,TAD (24 HAT),24 HAT,4.9
